Where a name gives a salt, the structure may show the parent alone. Read-outs that look alike come from different tables or passages of the source. Hit rate of the full screen: of about 5,300 compounds, about 130 (2.5%) showed an effect of 50% or more. The list shows a part of the results.
Tested on: M. mycetomatis strain mm55
Settings: primary screen, metabolic activity vs growth control, 96 h, 2 µM, inhibitor

| SMILES | % viability | % viability (Madurella mycetomatis metabolic activity at 2µM (%)) |
| --- | --- | --- |
| CCCCN(Cc1ccc(C(=O)NO)cc1)C(=O)Nc1ccccc1 [ONC0005155, nexturastat a] | 112.5% | – |
| Nc1nc(N)c2nc(CNc3ccc(C(=O)N[C@@H](CCC(=O)O)C(=O)O)cc3)cnc2n1 [ONC0005531, aminopterin] | 95.62% | – |
| N[C@@H](CSCC(=O)O)C(=O)O [ONC0003352, carbocysteine] | 72.13% | – |
| CCCCCCCCCCCC(=O)OCC(O)CO (stereo not drawn) [ONC0005598, glycerolmonolaurate] | 53.08% | – |
| OCCc1ccc(OCCn2ccnc2)cc1 [ONC0002571, mr948] | 60.25% | – |
| O=C(O)Cc1ccc(OCCNC[C@H](O)c2ccccc2)cc1 [ONC0001068, zd2079] | 36.58% | – |
| O=C(c1ccc(Cl)o1)N1CC2CNCC2C1 (stereo not drawn) [ONC0001914, azd1446] | 76.82% | – |
| CC(C)(C)c1ccc(-c2nc3c(N4CCN(Cc5ccc6nccnc6c5)CC4)cccc3[nH]2)cc1 [ONC0001828, way207024] | 97.56% | – |
| O=C(Nc1ccncc1)C(=O)c1cn(Cc2ccc(Cl)cc2)c2ccccc12 [ONC0003365, indibulin] | 53.12% | – |
| CC(CNS(=O)(=O)C(C)C)c1ccc(-c2ccc(C#N)cc2)cc1 (stereo not drawn) [ONC0003605, ly404187] | 108.4% | – |
| C=CC[C@]1(O)CC[C@H]2[C@@H]3CCC4=CCCC[C@@H]4[C@H]3CC[C@@]21C [ONC0002177, allylestrenol] | 92.16% | – |
| O=C(COc1ccc(Cl)cc1)N[C@H]1CC[C@H](NC(=O)COc2ccc(Cl)cc2)CC1 [ONC0001166, isrib transisomer] | 90.8% | – |
| C[C@@]1(O)[C@H](O)[C@@H](CO)O[C@H]1n1cnc2c(=O)[nH]c(N)nc21 [ONC0005603, 2cmethylguanosine] | 96.86% | – |
| Cn1c(C#N)ccc1-c1ccc2c(c1)C(C)(C)OC(=S)N2 [ONC0000956, tanaproget] | 70.6% | – |
| Cc1cc(C)c2c(c1)[C@@H](N(Cc1cc(C(F)(F)F)cc(C(F)(F)F)c1)c1nnn(C)n1)CCCN2C[C@H]1CC[C@H](C(=O)O)CC1 [ONC0004372, evacetrapib ly2484595] | 132.8% | – |
| CN1[C@@H]2CC[C@@H]1CC(OC(c1ccccc1)c1ccccc1)C2 (stereo partly drawn) [ONC0005113, benztropine mesylate] | 76.96% | – |
| CC[C@H](NC(=O)c1c(C)c(-c2ccccc2)nc2ccccc12)c1ccccc1 [ONC0003001, sb222200] | 60.49% | – |
| NCC(O)(CS(=O)(=O)O)c1ccc(Cl)cc1 (stereo not drawn) [ONC0000147, 2hydroxysaclofen] | 104.7% | – |
| COc1cc(/C=C/c2ccc(O)cc2)cc(OC)c1 [ONC0005458, pterostilbene] | 95.29% | – |

| SMILES | % viability | % viability (Madurella mycetomatis metabolic activity at 2µM (%)) |
| --- | --- | --- |
| CCOC(=O)c1ncn2c1CN(C)C(=O)c1cc(F)ccc1-2 [ONC0004084, flumazenil] | 104.1% | – |
| CC(C)(S)C(=O)N[C@@H](CS)C(=O)O [ONC0003276, bucillamine] | 45.36% | – |
| O=C(O)CCCNC(=O)c1cccnc1 [ONC0003758, pikamilone] | 120.3% | – |
| CC1=C(C(=O)Nc2cc3cn[nH]c3cc2F)C(c2ccc(C(F)(F)F)cc2)CC(=O)N1 (stereo not drawn) [ONC0004890, gsk429286a] | 115.5% | – |
| CNC(=O)c1ccccc1Nc1nc(Nc2ccc(N3CCOCC3)cc2OC)ncc1Cl [ONC0005255, nvptae226] | 135.1% | – |
| CCOc1cc(CC(=O)N[C@@H](CC(C)C)c2ccccc2N2CCCCC2)ccc1C(=O)O [ONC0005405, repaglinide] | 79.78% | – |
| Cc1cc(C)c2nc(-c3ccccn3)cc(C(=O)Nc3ccc(S(=O)(=O)Nc4onc(C)c4C)cc3)c2c1 [ONC0000413, ml193] | 52.65% | – |
| C[C@@H]1C(=O)O[C@H]2[C@H](O)C34[C@H]5C[C@@H](C(C)(C)C)[C@]36[C@@H](OC(=O)[C@@H]6O)O[C@@]4(C(=O)O5)[C@@]12O (stereo partly drawn) [ONC0001626, ginkgolideb] | 80.27% | – |
| COc1ccc(-c2cnc3c(-c4cccc5ncccc45)cnn3c2)cc1 [ONC0002277, chr6494] | – | 84.04% |
| CCOC(=O)C1=C(C)NC(C)=C(C(=O)OCC)C1c1ccccc1/C=C/C(=O)OC(C)(C)C [ONC0004923, lacidipine lacipil motens] | 105.2% | – |
| CCc1ccc(Cc2ccc3c(c2)[C@]2(OC3)O[C@H](CO)[C@@H](O)[C@H](O)[C@H]2O)cc1 [ONC0000886, tofogliflozin hydrate] | 64.04% | – |
| Cc1cc(C(=O)Nc2nc3cccc(Cl)c3n2[C@@H]2CCCCN(C(=O)/C=C/CN(C)C)C2)ccn1 [ONC0001107, nazartinib] | 39.34% | – |
| O=S(=O)(c1ccccc1)N(CC(F)(F)F)c1ccc(C(O)(C(F)(F)F)C(F)(F)F)cc1 [ONC0001352, t0901317] | 94.19% | – |
| COc1cc(S(C)(=O)=O)ccc1Nc1nc2ccc(-c3ccc(NC(=O)[C@H](C)c4ccc(F)cc4)cc3)cn2n1 [ONC0000808, empesertib] | 78.03% | – |
| C[C@H](NC[C@H](O)CP(=O)(O)CC1CCCCC1)c1ccc(Cl)c(Cl)c1 [ONC0000010, cgp54626] | 100% | – |
| CN[C@@H]1[C@@H](O)[C@@H](O[C@@H]2[C@@H](O)[C@H](O[C@H]3O[C@H](CN)[C@@H](O)[C@H](O)[C@H]3O)[C@@H](N)C[C@H]2NC(=O)[C@@H](O)CN)OC[C@]1(C)O [ONC0004760, isepamicin sulphate] | 106.1% | – |
| O=C(O)C(Cc1ccccc1)CN(O)C(=O)Cc1ccccc1 (stereo not drawn) [ONC0005512, cpa inhibitor] | 134% | – |
| COc1cccc([C@H](O)C2CCN(CCc3ccc(F)cc3)CC2)c1OC [ONC0003821, volinanserin] | 55.98% | – |
| COc1cc(F)c(F)c(Nc2ccc(I)cc2F)c1NS(=O)(=O)C1(C[C@H](O)CO)CC1 [ONC0005631, refametinib] | 80.67% | – |
| O=C(O)c1ccc(OCCn2ccnc2)cc1 [ONC0003331, dazoxiben] | 112.5% | – |

Full records from above:
COc1cc(/C=C/c2ccc(O)cc2)cc(OC)c1 [ONC0005458, pterostilbene] reads % viability: 95.29%
Nc1nc(N)c2nc(CNc3ccc(C(=O)N[C@@H](CCC(=O)O)C(=O)O)cc3)cnc2n1 [ONC0005531, aminopterin] reads % viability: 95.62%
O=C(Nc1ccncc1)C(=O)c1cn(Cc2ccc(Cl)cc2)c2ccccc12 [ONC0003365, indibulin] reads % viability: 53.12%
Cc1cc(C(=O)Nc2nc3cccc(Cl)c3n2[C@@H]2CCCCN(C(=O)/C=C/CN(C)C)C2)ccn1 [ONC0001107, nazartinib] reads % viability: 39.34%

Continuation:

| SMILES | % viability | % viability (Madurella mycetomatis metabolic activity at 2µM (%)) |
| --- | --- | --- |
| C#C[C@]1(O)CC[C@H]2[C@@H]3CCc4cc(O)ccc4[C@H]3CC[C@@]21C [ONC0000739, ethinyl estradiol] | 92.75% | – |
| CCCCN(CCCC)CCC(O)c1cc2c(Cl)cc(Cl)cc2c2cc(C(F)(F)F)ccc12 (stereo not drawn) [ONC0003518, halofantrinehcl] | 46.17% | – |
| CS(=O)(=O)N1CCN(Cc2cc3nc(-c4cccc5[nH]ncc45)nc(N4CCOCC4)c3s2)CC1 [ONC0004658, pictilisib gdc0941] | 69.9% | – |
| CC(C)NCC(O)c1ccc(O)c(O)c1 (stereo not drawn) [ONC0000608, isoproterenol hydrochloride] | 81.88% | – |
| Cc1cc(N2CCOCC2)cc2[nH]c(-c3c(NC[C@@H](O)c4cccc(Cl)c4)cc[nH]c3=O)nc12 [ONC0000809, bms536924] | 85.16% | – |
| COC(=O)Nc1nc2ccc([S+]([O-])c3ccccc3)cc2[nH]1 (stereo not drawn) [ONC0004180, oxfendazole] | 72.44% | – |
| CC(C)(C)NC(=O)[C@@H]1C[C@@H]2CCCC[C@@H]2CN1C[C@@H](O)[C@H](Cc1ccccc1)NC(=O)[C@H](CC(N)=O)NC(=O)c1ccc2ccccc2n1 [ONC0003473, saquinavir mesylate] | 64.63% | – |
| CO[C@@H](C(=O)N1Cc2n[nH]c(NC(=O)c3ccc(N4CCN(C)CC4)cc3)c2C1)c1ccccc1 [ONC0004749, danusertib pha739358] | 112.5% | – |
| Oc1ccc(-c2c(-c3ccccc3)nn3c(C(F)(F)F)cc(C(F)(F)F)nc23)cc1 [ONC0001317, phtpp] | 86.47% | – |
| COc1ccc(S(=O)(=O)Nc2c(C)cc(C)cc2C)cc1 [ONC0003048, gsk37647] | 110.6% | – |
| Nc1nc2c(ncn2COCCO)c(=O)[nH]1 [ONC0002439, acyclovir] | 82.13% | – |
| CC(C)(CCCCCC(O)CCCCCC(C)(C)C(=O)O)C(=O)O [ONC0002532, etc1002] | 66.69% | – |
| O=C(O)Cn1c2c(c3cc(F)ccc31)CN(C(=O)c1cccc3ccccc13)CC2 [ONC0001062, setipiprant] | 62.06% | – |
| O=C(c1ccc2c(c1)OCO2)N1CCCCC1 [ONC0004313, cx516] | 122.2% | – |
| Cc1ccccc1C(=O)c1ccc(Nc2ccc(Br)cc2N)cc1Cl [ONC0003160, eo1428] | 75.19% | – |
| CCCCOC(=O)c1ccccc1Nc1cccc(C(F)(F)F)c1 [ONC0000312, ufenamate] | 75.77% | – |
| CC1(C)CCC[C@]2(C)[C@H]3CC(=O)O[C@]3(C)CC[C@@H]12 [ONC0004742, sclareolide norambreinolide] | 126.3% | – |
| COc1ccc(C(=O)c2ccccc2)c(O)c1 [ONC0000578, 2hydroxy4methoxybenzophenone] | 73.27% | – |
| COc1c(N2C[C@@H]3CCCN[C@@H]3C2)c(F)cc2c(=O)c(C(=O)O)cn(C3CC3)c12 [ONC0004240, moxifloxacin hydrochloride] | 59.73% | – |
| O=C(Oc1ccccc1)c1ccccc1O [ONC0003738, phenylsalicylate] | 110.3% | – |

Reference: publication PMC12670160, “A drug-repurposing screen of FDA- and EMA-approved drugs identifies two NF-κB inhibitors active against eumycetoma” (Journal of Antimicrobial Chemotherapy, 2025)
